Test results reported in paper PMC3806365.
These are yes or no findings as the source states them, for the method shown. In cells and extracts the contact can be indirect. Some binding calls cover weakened binding; strength is not graded here. Blank lines part the entries; values can stand above or below the substance they belong to.

Chains of the proteins cited; added tags and fusions are not shown.
UniProt P48722: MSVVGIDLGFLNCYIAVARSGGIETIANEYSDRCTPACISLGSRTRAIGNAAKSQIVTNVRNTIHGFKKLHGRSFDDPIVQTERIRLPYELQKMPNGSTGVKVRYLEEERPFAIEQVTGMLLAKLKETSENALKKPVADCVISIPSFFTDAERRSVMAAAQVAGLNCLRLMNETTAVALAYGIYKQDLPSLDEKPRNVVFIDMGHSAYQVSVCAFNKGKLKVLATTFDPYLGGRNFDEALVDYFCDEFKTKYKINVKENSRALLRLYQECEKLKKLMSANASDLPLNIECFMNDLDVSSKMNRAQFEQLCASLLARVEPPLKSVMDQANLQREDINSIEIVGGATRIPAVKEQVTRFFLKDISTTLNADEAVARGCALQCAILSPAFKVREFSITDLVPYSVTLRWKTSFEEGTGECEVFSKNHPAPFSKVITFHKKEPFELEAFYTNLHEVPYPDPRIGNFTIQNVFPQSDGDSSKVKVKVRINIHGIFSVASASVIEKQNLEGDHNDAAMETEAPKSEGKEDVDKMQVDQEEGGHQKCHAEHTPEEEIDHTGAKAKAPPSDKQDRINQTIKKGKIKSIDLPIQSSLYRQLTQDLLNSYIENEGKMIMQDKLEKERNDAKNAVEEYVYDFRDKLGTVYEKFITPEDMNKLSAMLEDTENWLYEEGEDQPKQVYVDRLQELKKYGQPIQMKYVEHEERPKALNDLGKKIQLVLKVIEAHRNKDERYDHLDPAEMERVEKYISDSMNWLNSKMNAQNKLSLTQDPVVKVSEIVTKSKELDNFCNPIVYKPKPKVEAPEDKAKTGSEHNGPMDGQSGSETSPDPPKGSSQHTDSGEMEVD
UniProt Q61316: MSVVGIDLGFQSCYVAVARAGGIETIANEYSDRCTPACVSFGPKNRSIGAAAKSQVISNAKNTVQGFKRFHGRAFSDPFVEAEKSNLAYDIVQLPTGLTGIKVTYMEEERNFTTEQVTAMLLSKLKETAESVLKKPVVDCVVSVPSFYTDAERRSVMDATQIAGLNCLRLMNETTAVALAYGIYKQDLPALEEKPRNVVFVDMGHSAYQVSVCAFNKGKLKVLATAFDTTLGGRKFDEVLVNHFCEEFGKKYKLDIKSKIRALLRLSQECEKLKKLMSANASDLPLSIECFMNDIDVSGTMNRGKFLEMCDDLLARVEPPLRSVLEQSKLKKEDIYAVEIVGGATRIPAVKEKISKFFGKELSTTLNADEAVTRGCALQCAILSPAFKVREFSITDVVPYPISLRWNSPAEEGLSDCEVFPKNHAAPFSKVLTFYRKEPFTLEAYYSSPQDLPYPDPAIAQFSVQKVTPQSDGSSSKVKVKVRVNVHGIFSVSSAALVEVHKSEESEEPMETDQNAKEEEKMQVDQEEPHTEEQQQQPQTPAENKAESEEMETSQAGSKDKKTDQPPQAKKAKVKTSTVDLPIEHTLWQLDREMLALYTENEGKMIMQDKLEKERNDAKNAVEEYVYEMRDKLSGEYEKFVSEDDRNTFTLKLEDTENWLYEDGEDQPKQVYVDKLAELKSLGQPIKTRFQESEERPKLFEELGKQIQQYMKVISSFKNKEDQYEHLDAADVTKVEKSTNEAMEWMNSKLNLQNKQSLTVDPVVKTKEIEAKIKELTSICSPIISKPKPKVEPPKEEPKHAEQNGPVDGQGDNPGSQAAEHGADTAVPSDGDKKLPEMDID
UniProt P11798: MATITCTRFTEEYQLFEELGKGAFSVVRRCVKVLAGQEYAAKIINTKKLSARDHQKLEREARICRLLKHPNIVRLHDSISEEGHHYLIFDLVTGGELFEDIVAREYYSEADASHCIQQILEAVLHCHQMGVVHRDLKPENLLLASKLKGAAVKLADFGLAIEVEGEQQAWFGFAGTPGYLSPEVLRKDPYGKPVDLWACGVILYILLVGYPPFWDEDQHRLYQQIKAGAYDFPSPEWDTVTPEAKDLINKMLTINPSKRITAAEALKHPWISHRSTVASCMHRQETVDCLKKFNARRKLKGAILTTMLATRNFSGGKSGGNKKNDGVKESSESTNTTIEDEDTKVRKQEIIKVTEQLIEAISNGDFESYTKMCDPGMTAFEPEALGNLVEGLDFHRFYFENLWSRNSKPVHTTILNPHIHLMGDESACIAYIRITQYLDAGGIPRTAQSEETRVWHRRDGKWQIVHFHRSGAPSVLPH

How the values were obtained:
[1] = target: T1, Nogo-A, full length, overexpressed in CHO-K1 cells (Nogo-A_pcDNA3) (UniProt Q9JK11); assay: co-IP; Apg-1 co-transfected with Nogo-A or Nogo-B in adherent CHO-K1 cells, lysed in buffer A (50 mM Hepes pH 7.6, 150 mM NaCl, 10% glycerol, 1% Triton X-100); 200 μg of lysate with 6 μg of rabbit anti-Nogo-A/B (Bianca), rabbit anti-Apg-1 or rabbit IgG; Western blot
T1 sequence: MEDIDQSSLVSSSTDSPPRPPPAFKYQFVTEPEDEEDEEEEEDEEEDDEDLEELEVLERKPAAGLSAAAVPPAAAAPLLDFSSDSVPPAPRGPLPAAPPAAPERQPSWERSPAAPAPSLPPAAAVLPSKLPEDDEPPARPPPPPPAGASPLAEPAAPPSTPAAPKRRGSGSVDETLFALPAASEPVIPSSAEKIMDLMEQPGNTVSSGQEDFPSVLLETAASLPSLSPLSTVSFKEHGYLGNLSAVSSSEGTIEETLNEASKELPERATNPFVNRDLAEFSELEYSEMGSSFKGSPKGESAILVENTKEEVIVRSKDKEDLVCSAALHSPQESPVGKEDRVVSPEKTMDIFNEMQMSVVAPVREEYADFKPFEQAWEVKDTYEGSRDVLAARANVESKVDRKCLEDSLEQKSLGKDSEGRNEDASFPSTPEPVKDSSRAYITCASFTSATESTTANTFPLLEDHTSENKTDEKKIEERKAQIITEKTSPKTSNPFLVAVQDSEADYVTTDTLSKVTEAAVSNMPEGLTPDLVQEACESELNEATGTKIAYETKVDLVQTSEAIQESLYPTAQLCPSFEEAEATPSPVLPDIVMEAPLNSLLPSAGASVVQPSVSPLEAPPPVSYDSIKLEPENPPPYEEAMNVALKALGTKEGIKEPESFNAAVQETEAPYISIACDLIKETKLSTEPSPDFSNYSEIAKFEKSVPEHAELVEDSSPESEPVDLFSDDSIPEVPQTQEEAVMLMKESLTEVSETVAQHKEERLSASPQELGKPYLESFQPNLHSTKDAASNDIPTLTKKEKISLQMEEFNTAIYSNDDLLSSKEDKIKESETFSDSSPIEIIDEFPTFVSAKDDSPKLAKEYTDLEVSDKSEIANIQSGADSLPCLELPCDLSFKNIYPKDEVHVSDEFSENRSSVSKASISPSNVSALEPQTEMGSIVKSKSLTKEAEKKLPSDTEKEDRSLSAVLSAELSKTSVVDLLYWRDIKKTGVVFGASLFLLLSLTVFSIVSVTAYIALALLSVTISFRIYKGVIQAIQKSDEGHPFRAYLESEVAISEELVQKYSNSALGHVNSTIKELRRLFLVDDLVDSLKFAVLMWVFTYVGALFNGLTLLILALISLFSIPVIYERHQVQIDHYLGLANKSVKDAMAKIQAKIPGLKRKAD

[2] = target: T2, Nogo-A/RTN4-A (endogenous, mouse) (mouse (endogenous in brain and hippocampal neurons)) (UniProt Q99P72); assay: co-IP; endogenous proteins, brain lysate from a 4-week-old mouse, 1 mg of total protein; 6 μg of rabbit anti-Nogo-A/B (Bianca), rabbit anti-Apg-1 or rabbit IgG; Western blot
T2 sequence: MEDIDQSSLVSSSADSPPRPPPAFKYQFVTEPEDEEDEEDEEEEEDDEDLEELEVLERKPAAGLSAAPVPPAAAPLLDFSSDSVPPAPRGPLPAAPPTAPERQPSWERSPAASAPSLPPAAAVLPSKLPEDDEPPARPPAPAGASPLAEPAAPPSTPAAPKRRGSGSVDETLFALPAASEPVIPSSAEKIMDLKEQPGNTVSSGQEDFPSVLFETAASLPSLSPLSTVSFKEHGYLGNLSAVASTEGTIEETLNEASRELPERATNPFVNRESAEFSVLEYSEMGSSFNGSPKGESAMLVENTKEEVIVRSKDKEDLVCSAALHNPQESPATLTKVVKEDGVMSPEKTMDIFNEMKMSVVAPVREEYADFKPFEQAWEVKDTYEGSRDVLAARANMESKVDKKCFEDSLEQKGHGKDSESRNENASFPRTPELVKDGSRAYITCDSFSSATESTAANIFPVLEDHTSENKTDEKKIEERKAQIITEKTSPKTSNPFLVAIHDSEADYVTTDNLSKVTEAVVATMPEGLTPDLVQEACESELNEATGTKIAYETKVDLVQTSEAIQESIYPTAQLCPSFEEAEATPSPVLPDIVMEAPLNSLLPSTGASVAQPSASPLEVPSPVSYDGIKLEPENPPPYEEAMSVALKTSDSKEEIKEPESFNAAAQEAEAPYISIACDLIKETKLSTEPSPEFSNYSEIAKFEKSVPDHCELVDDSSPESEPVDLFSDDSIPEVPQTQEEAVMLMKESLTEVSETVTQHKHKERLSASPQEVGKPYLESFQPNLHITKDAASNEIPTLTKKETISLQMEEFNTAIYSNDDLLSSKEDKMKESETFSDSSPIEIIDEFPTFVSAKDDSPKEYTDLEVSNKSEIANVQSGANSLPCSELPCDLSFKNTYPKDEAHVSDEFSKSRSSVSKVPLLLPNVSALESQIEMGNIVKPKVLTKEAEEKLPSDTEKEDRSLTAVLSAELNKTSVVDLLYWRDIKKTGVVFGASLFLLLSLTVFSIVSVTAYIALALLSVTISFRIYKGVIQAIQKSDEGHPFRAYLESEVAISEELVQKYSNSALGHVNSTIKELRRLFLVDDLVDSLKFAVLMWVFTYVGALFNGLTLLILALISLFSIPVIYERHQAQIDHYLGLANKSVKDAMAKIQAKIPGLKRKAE

[3] = target: T3, Nogo-A (RTN4-A), endogenous (mouse (endogenous in mouse brain)) (UniProt Q99P72); assay: co-IP; endogenous proteins, mouse brain lysate
T3 sequence: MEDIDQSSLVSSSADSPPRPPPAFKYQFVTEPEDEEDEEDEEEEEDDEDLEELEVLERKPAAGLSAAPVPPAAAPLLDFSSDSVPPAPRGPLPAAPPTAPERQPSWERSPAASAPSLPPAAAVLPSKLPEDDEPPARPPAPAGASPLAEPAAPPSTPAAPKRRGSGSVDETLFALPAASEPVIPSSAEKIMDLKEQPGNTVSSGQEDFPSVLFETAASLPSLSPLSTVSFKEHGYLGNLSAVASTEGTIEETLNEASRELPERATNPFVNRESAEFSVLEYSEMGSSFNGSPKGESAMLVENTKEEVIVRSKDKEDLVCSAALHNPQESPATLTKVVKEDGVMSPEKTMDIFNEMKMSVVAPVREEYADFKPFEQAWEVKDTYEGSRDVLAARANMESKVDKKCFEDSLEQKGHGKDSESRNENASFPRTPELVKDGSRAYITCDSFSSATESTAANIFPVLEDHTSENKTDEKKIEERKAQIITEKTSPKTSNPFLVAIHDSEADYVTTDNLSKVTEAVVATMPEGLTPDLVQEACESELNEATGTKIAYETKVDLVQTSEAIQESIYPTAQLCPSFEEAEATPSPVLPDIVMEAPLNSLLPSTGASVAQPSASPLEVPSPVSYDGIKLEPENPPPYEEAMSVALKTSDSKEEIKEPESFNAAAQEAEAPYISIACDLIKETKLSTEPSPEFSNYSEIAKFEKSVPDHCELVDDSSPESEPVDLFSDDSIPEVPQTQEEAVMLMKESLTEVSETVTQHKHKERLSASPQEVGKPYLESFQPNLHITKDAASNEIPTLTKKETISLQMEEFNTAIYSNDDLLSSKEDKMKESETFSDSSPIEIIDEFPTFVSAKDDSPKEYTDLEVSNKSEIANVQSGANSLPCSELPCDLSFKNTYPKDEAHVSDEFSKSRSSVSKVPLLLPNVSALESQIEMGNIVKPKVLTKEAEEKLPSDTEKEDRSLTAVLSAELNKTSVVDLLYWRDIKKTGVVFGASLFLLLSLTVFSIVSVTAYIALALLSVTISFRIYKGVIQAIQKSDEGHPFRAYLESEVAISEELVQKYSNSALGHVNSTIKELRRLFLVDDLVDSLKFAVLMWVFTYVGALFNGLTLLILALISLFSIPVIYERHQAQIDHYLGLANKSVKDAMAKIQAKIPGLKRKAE

binding [1]: binds
Substance: Apg-1 (mouse), overexpressed in CHO-K1 cells (from UniProt P48722 1-838)

binding [2]: no binding
Substance: Apg-2 (endogenous, mouse brain) (from UniProt Q61316 1-841)

binding [3]: no binding
Substance: CaMKIIα (Ca2+/calmodulin-dependent protein kinase II) (from UniProt P11798 1-478) (enzyme)
